Results taken from PMC7862700.
The list shows a part of the results, in another mix than the full data. For some assays here: At the low end of the ranking the order means little. The list shows a part of the results. For some assays here: The source does not settle which construct or isoform was used.

Protein sequences, listed by entry. Tags and fused reporters are not part of them. Lines headed by an entry give the natural chain unless they say otherwise; changes in a name come on top.
UniProt P50549: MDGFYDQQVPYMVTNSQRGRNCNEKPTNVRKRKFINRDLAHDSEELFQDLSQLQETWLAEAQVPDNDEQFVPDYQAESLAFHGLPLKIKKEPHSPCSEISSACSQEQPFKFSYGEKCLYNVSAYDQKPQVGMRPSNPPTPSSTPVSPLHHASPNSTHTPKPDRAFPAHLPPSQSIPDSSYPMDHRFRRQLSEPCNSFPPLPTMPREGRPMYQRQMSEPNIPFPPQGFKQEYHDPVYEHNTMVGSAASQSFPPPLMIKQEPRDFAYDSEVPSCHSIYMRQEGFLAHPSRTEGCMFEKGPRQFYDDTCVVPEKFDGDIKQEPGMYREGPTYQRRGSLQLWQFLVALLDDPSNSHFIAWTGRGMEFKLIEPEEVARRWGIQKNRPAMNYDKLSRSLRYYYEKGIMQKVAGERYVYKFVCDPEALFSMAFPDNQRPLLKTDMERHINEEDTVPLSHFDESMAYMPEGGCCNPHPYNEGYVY

Assays:
Assay in all cases: DAPPL (digital affinity profiling via proximity ligation, sequencing)
Conditions in all cases: 10 mM Tris-HCl pH 7.5, 50 mM NaCl, 1 mM DTT, 4% glycerol, room temperature, 30 min; GST-TFs on glutathione beads, 16-mer random dsDNA library, 0.1% …; high values mean tight binding; double strand, one strand shown; scale: fold enrichment (6-mer frequency, TF over GST control)
ETV4 = biological target: T1, ETV4 (UniProt P43268)
T1 sequence: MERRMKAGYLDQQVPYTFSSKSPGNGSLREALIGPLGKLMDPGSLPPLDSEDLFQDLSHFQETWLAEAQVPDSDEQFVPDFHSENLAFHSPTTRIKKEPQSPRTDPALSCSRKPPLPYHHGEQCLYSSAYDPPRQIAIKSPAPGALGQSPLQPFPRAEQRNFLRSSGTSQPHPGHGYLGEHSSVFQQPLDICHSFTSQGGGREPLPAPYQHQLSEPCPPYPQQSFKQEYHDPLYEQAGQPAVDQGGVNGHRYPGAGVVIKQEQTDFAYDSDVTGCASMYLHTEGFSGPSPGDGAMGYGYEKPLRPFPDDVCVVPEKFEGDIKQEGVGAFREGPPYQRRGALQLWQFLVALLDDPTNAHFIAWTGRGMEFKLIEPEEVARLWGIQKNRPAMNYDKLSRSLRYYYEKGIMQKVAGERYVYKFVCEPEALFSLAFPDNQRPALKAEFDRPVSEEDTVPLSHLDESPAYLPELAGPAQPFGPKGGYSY

ETV1 = ETV1 (UniProt P50549)
ERF = biological target: T2, ERF (UniProt P50548)
T2 sequence: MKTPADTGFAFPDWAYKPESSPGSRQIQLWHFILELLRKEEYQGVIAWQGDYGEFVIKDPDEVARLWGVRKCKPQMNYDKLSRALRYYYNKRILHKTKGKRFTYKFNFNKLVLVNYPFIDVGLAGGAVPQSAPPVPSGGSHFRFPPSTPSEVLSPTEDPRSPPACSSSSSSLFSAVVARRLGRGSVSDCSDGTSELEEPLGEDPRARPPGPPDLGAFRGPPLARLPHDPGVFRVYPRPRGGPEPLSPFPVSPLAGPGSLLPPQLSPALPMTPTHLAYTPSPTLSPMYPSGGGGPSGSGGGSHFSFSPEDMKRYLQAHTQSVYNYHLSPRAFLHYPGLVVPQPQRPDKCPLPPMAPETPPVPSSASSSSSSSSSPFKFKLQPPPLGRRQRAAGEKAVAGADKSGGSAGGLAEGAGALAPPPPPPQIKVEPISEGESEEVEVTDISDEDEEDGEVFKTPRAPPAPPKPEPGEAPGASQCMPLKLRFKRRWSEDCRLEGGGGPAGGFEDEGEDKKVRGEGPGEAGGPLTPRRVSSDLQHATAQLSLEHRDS

| Sequence | binding signal (ETV4) | binding signal (ETV1) | binding signal (ERF) |
| --- | --- | --- | --- |
| ATAGTT | 1.24 | 1.11 | – |
| GGTGTT | 1.08 | 1.04 | – |
| ACCTCT | 1.27 | 1.3 | – |
| TTCCGC | 2.94 | 3.17 | – |
| CACTGT | 1.21 | 1.11 | – |
| CCTAAG | 1.13 | 1.09 | – |
| AACTCT | 1.45 | 1.36 | – |
| TTACAG | 1.16 | 1.2 | – |
| GCCGCT | 1.08 | 1.15 | – |
| ACGTAT | 1.16 | 1.32 | – |
| AACTTT | 1.23 | 1.23 | – |
| CACCTG | 1.08 | 0.947 | – |
| GCCCAA | 1.12 | 0.982 | – |
| TGCTCC | 1.48 | 1.31 | – |
| ATTGTT | 1.47 | 1.47 | – |
| AAATAC | 1.36 | 1.39 | – |
| TTCTGG | 1.25 | 1.21 | – |
| CTCGGT | 1.15 | 1.15 | – |
| TCCCCG | 1.16 | 1.13 | – |
| TTACTA | 1.3 | 1.23 | – |
| GCTGGC | 1.07 | 0.976 | – |
| AATGGT | 1.37 | 1.43 | – |

Six entries from above, with bars between the fields.
Sequence | binding signal (ETV4) | binding signal (ETV1) | binding signal (ERF)
GCCGCT | 1.08 | 1.15 | –
ACGTAT | 1.16 | 1.32 | –
AACTTT | 1.23 | 1.23 | –
CACCTG | 1.08 | 0.947 | –
GCCCAA | 1.12 | 0.982 | –
TGCTCC | 1.48 | 1.31 | –

Continuation.

| Sequence | binding signal (ETV4) | binding signal (ETV1) | binding signal (ERF) |
| --- | --- | --- | --- |
| GGTCTC | 2.54 | 2.58 | – |
| ATCGCT | 0.983 | 1.08 | – |
| CCCTTC | 1.42 | 1.51 | – |
| TTCGCT | 1.26 | 1.27 | – |
| GCTCCC | 1.47 | 1.24 | – |
| TGCCAT | 1.08 | 1.17 | – |
| TTACGG | 1.17 | 1.25 | – |
| AGCTCA | 1.1 | 1.24 | – |
| AAAATA | 1.14 | 1.1 | – |
| TTTGTG | 1.12 | 1.1 | – |
| CTCTCT | 1.64 | 1.49 | – |
| AATAGT | 1.18 | 1.17 | – |
| CGTTAT | 1.18 | 0.987 | – |
| CCGACT | 1.52 | 1.6 | – |
| TGGCTG | 1.02 | 0.947 | – |
| TTTCCG | 3.55 | 3.76 | – |
| GAAAAT | 1.05 | 1.02 | – |
| ACGTCC | 1.59 | 1.63 | – |
| TGCGCA | 1.11 | 1.07 | – |
| ATCCTA | 1.35 | 1.32 | – |
| TATGTC | 1.1 | 1.05 | – |
| GAACTT | 1.57 | 1.68 | – |

| Sequence | binding signal (ETV4) | binding signal (ETV1) | binding signal (ERF) |
| --- | --- | --- | --- |
| GGTCTA | 1.22 | 1.05 | – |
| ACTCGT | 1.19 | 1.13 | – |
| TAACCA | 1.13 | 1.02 | – |
| TGCATA | 1.16 | 1.07 | – |
| TGGTAA | 1.23 | 1.27 | – |
| TCAATC | 1.05 | 1.04 | – |
| CAGCTA | 1.05 | 0.967 | – |
| TCCCGT | 1.34 | 1.3 | – |
| CAAACA | 1.09 | 1.09 | – |
| CATGGG | 1.02 | 0.952 | – |
| ACCATC | 1.1 | 1.03 | – |
| AGTTAA | 1.05 | 0.988 | – |
| TAGCAT | 1.07 | 1.17 | – |
| GTCCTC | 1.28 | 1.25 | – |
| AACCTA | 1.14 | 1.1 | – |
| ACCTCC | 1.54 | 1.4 | – |
| CACCGC | 1.08 | 1 | – |
| GGCCCT | 1.01 | 0.973 | – |
| CGCCGC | 1.15 | 1.29 | – |
| AAAGTA | 1.12 | 1.18 | – |
| CCCAAC | 1.22 | 1.13 | – |
| TTCACG | 1.33 | 1.32 | – |

| Sequence | binding signal (ETV4) | binding signal (ETV1) | binding signal (ERF) |
| --- | --- | --- | --- |
| GCCCTA | 1.15 | 1.06 | – |
| CGTTTT | 1.21 | 1.17 | – |
| CACACG | 1.11 | 1.16 | – |
| AGCAAC | 1.02 | 0.99 | – |
| CTTCTT | 1.5 | 1.48 | – |
| GTGTTC | 1.07 | 1.14 | – |
| AAACAC | 1.3 | 1.26 | – |
| TATTTT | 1.26 | 1.48 | – |
| GATGCG | 1.07 | 1.06 | – |
| CAAATC | 1.16 | 1.15 | – |
| TAACAG | 1.05 | 1.09 | – |
| CTTTGC | 1.43 | 1.35 | – |
| ACCCAA | 1.04 | 0.946 | – |
| TCAACG | 1.14 | 1.15 | 0.995 |
| TTTCGG | 1.15 | 1.31 | 1.17 |
| GAAACA | 1.31 | 1.26 | 1.34 |
| GACATT | 1.15 | 1.26 | 1.22 |
| CACTAG | 1.06 | 0.915 | 0.978 |
| AACGAT | 1.18 | 1.19 | 1.29 |
| GTTAAT | 1.14 | 1 | 0.999 |
| ATGCCC | 1.27 | 1.31 | 1.31 |
| GCACTA | 1.22 | 1.15 | 1.19 |

| Sequence | binding signal (ETV4) | binding signal (ETV1) | binding signal (ERF) |
| --- | --- | --- | --- |
| ACGCTC | 1.04 | 0.948 | 0.998 |
| CCTAAT | 1.32 | 1.38 | – |
| GGTACT | 1.36 | 1.26 | 1.38 |
| ATGAAC | 1.28 | 1.38 | 1.26 |
| CGCGGC | 1.09 | 0.963 | 0.981 |
| CACCCG | 1.2 | 1.14 | 1.25 |
| GGTATC | 1.03 | 1.1 | 0.997 |
| CCCCGA | 1.16 | 0.98 | 1.15 |
| GTTGCG | 1.05 | 0.991 | 1.14 |
| AAGAAC | 1.18 | 1.22 | – |
| CCGCTC | 1.42 | 1.45 | 1.66 |
| TGCATG | 1.08 | 1.06 | 1.06 |
| CGTCAC | 1.25 | 1.2 | 1.15 |
| ATGCCA | 1.03 | 1.02 | – |
| ACATGT | 1.09 | 1.09 | 1.15 |
| TGGGTT | 1.06 | 0.964 | 0.983 |
| AGCACA | 1.07 | 1.02 | 1.13 |
| AATTAA | 1.23 | 1.26 | 1.31 |
